These are yes or no findings as the source states them, for the method shown. In cells and extracts the contact can be indirect. Binding calls can cover weak binding; strength is not graded here.
Tests used:
Test in all cases: proximity ligation
[1] = biological target: T1, JUND (mouse (endogenous in granulosa cells)) (UniProt P15066)
T1 sequence: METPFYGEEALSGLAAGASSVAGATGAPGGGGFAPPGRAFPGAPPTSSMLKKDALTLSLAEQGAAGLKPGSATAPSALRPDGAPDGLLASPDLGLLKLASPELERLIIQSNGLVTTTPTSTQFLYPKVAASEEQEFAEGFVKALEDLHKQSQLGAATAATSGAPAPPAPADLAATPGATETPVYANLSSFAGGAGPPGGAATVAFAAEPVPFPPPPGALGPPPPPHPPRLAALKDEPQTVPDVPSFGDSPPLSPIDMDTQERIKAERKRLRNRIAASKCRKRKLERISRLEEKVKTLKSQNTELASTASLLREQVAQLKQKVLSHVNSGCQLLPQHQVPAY

By UniProt entry, the sequences of proteins in these tests, tags left out. Where a name states a change or a piece, a line headed by the entry shows the natural chain unless it says otherwise.
UniProt P45448: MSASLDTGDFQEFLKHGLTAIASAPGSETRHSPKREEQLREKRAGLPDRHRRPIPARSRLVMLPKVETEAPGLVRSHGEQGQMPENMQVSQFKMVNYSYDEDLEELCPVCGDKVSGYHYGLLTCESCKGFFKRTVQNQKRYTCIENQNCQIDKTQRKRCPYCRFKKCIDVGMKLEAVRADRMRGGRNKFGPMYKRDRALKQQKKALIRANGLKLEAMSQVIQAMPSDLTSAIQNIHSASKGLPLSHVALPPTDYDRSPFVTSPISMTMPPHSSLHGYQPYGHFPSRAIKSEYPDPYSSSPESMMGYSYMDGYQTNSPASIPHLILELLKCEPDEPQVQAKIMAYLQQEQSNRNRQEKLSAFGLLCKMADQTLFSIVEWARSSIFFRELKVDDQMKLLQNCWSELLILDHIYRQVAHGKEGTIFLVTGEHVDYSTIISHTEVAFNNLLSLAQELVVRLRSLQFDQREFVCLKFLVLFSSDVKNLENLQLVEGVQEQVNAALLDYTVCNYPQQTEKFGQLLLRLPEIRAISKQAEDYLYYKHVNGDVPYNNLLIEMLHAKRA
UniProt Q03347: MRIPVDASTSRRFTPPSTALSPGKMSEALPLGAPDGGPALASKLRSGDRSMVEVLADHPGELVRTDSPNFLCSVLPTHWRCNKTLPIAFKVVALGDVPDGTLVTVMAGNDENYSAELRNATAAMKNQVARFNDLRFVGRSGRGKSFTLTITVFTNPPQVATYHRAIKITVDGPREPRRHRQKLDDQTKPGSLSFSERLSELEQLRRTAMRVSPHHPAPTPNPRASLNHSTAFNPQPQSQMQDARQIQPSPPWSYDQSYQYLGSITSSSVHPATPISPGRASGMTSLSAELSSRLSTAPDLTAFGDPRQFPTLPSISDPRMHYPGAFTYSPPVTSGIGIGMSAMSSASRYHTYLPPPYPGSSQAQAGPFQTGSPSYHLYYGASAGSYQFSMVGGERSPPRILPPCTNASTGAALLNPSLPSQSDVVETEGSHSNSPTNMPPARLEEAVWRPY
UniProt Q08775: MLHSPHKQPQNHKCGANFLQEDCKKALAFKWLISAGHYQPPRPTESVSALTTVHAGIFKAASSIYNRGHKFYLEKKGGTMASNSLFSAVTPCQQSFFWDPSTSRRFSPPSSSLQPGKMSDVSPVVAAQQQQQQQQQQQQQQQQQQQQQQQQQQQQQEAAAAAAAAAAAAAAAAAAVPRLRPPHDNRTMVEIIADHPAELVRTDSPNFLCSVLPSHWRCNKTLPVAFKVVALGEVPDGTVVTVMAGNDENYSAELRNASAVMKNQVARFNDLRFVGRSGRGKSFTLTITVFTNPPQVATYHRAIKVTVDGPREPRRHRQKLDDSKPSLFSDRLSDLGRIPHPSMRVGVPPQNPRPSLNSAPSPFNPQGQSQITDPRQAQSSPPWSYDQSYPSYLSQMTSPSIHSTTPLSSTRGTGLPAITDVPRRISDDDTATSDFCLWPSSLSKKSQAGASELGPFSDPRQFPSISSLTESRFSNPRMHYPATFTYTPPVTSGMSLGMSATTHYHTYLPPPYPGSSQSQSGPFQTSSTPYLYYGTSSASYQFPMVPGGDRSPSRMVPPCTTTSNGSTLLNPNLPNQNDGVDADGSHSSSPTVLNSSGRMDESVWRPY
UniProt Q00175: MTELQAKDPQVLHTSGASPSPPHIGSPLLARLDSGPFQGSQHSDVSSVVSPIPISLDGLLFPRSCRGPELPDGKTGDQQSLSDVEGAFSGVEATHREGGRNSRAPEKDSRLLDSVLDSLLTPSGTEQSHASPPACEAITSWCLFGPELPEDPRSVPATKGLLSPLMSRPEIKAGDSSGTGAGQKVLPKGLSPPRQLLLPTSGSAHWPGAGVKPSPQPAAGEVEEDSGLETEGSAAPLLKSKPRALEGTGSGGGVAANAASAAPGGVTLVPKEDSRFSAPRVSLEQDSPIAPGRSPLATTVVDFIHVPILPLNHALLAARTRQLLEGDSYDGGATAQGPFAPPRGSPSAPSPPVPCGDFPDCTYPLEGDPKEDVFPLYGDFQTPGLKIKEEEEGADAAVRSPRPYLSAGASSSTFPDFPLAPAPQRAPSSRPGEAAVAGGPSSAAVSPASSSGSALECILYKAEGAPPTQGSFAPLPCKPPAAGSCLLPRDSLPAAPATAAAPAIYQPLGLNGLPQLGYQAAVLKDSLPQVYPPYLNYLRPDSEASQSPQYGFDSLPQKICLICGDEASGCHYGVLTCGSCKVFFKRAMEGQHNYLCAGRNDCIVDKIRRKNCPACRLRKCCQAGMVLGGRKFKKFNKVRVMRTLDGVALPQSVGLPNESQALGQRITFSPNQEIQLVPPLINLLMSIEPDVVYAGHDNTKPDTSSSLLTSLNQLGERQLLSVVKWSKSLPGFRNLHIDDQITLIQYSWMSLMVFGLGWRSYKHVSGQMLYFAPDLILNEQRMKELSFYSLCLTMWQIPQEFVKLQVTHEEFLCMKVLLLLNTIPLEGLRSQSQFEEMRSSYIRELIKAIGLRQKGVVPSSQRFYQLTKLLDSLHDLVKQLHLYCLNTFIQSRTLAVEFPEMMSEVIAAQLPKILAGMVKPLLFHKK

[2] = biological target: NR5A2 (LRH1) (mouse (endogenous in granulosa cells)) (UniProt P45448)
[3] = biological target: RUNX1 (mouse (endogenous in granulosa cells)) (UniProt Q03347)
[4] = biological target: RUNX2 (mouse (endogenous in granulosa cells)) (UniProt Q08775)

With “Progesterone receptor (PGR) (from UniProt Q00175)” the binding [1] was “binds”, the binding [2] was “binds weakly” and the binding [3] was “binds”. The binding [4] was “binds”.
